According to publication PMC12239085, “Silver(I) Ions Bridging Oxadiazole-2-thione Derivatives with Mitochondriotropic Agents: A Promising Strategy for Potent Anticancer Chemotherapy” (Inorganic Chemistry, 2025):

Legend:
[1] = system: MDA-MB-231 human breast adenocarcinoma cells (hormone-independent); experiment: SRB antiproliferative assay, MDA-MB-231; format: cell-based; conditions: ratio normal to cancer cells
Method: (§1) Stock solutions of compounds 1a–5a and 1–5 (0.01 M) in DMSO were freshly prepared and subsequently diluted with cell culture media to appropriate concentrations for various biological experiments. These included the assessment of cell viability using the SRB assay, micronucleus testing, cell morphology studies, cell cycle arrest, AO/EB staining, and mitochondrial membrane permeabilization tests. For CT-DNA binding studies, experiments were conducted in DMSO/buffer solutions. All biological experiments were performed in triplicate or more.
(§2) Stock solutions of 1a–5a and 1–5 (0.01 M) were dissolved in DMSO and subsequently diluted with cell culture medium to the desired concentrations (0.5–30 μM). MCF-7, MDA MB-231, and MRC-5 cells were plated in 96-well flat-bottom microplates at various densities: 6000, 8000, and 2000 cells per well, respectively. The cells were incubated for 24 h at 37 °C and then exposed to 1a–5a and 1–5 for 48 h. ,–
(§3) Cytotoxicity was evaluated using the SRB colorimetric assay at λ = 568 nm, with cell survival percentages calculated relative to the untreated control cells. Detailed information on the SRB assay procedure can be found in the previous publication. ,–

[2] = system: MCF-7 human breast adenocarcinoma cells (hormone-dependent); experiment: SRB antiproliferative assay, MCF-7; format: cell-based; conditions: ratio normal to cancer cells
Method: as §1, §2, §3

Structure (SMILES) | TPI = IC50 MCF-10A/IC50 MDA-MB-231 [1] | TPI = IC50 MRC-5/IC50 MDA-MB-231 [1] | TPI (Therapeutic Potency Index) = IC50 MRC-5/IC50 MCF-7 [2] | TPI = IC50 MCF-10A/IC50 MCF-7 [2]
N.N.[Cl][Pt][Cl] [cisplatin] | 0.4 | 0.04 | 0.2 | 2.0
c1ccc(-c2nnc([S][Ag]([PH](c3ccccc3)(c3ccccc3)c3ccccc3)([PH](c3ccccc3)(c3ccccc3)c3ccccc3)[PH](c3ccccc3)(c3ccccc3)c3ccccc3)o2)cc1 [compound 1] | 2.6 | 0.9 | 1.9 | 5.2
Fc1ccccc1-c1nnc([S][Ag]([PH](c2ccccc2)(c2ccccc2)c2ccccc2)([PH](c2ccccc2)(c2ccccc2)c2ccccc2)[PH](c2ccccc2)(c2ccccc2)c2ccccc2)o1 [compound 2] | 3.6 | 0.8 | 1.2 | 5.6
Fc1ccc(-c2nnc([S][Ag]([PH](c3ccccc3)(c3ccccc3)c3ccccc3)([PH](c3ccccc3)(c3ccccc3)c3ccccc3)[PH](c3ccccc3)(c3ccccc3)c3ccccc3)o2)cc1 [compound 3] | 4.3 | 1.1 | 1.3 | 5.1
Clc1ccccc1-c1nnc([S][Ag]([PH](c2ccccc2)(c2ccccc2)c2ccccc2)([PH](c2ccccc2)(c2ccccc2)c2ccccc2)[PH](c2ccccc2)(c2ccccc2)c2ccccc2)o1 [compound 4] | 3.7 | 1.0 | 1.4 | 5.3
Clc1cccc(-c2nnc([S][Ag]([PH](c3ccccc3)(c3ccccc3)c3ccccc3)([PH](c3ccccc3)(c3ccccc3)c3ccccc3)[PH](c3ccccc3)(c3ccccc3)c3ccccc3)o2)c1 [compound 5] | 4.5 | 0.8 | 1.7 | 9.5
